The supplement of paper PMC9454738
Counter-ions that a name gives are not always drawn. ± gives the standard deviation of the averaged measurements. The list shows a part of the results. Repeats in this data set agree poorly, so a single value says little.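 Triple-negative MDA-MB-231 breast cancer cells and their brain-metastatic MDA-MB-231BRM derivative each stably expressed empty vector, full-length GLI1 or truncated tGLI1. CellTiter-Blue measured viability at 48 h relative to 1% DMSO vehicle. Compounds reducing viability 20% more in tGLI1 cells than in vector and GLI1 cells counted as tGLI1-selective.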

Columns and labels:
Test in all cases: cell viability relative to vehicle (DMSO) control (fraction); higher = more viable cells (less growth inhibition)
Conditions in all cases: treatment time 48 h
MDA-MB-231 GLI1 = tested on: MDA-MB-231 GLI1
MDA-MB-231 Vector = tested on: MDA-MB-231 Vector
MDA-MB-231 tGLI1 = tested on: MDA-MB-231 tGLI1
MDA-MB-231BRM GLI1 = tested on: MDA-MB-231BRM GLI1
MDA-MB-231BRM Vector = tested on: MDA-MB-231BRM Vector
MDA-MB-231BRM tGLI1 = tested on: MDA-MB-231BRM tGLI1

SMILES	cell viability (MDA-MB-231 GLI1; 0.05 µM)	cell viability (MDA-MB-231 GLI1; 0.5 µM)	cell viability (MDA-MB-231 GLI1; 5 µM)	cell viability (MDA-MB-231 Vector; 0.05 µM)	cell viability (MDA-MB-231 Vector; 0.5 µM)	cell viability (MDA-MB-231 Vector; 5 µM)	cell viability (MDA-MB-231 tGLI1; 0.05 µM)	cell viability (MDA-MB-231 tGLI1; 0.5 µM)	cell viability (MDA-MB-231 tGLI1; 5 µM)	cell viability (MDA-MB-231BRM GLI1; 0.05 µM)	cell viability (MDA-MB-231BRM GLI1; 0.5 µM)	cell viability (MDA-MB-231BRM GLI1; 5 µM)	cell viability (MDA-MB-231BRM Vector; 0.05 µM)	cell viability (MDA-MB-231BRM Vector; 0.5 µM)	cell viability (MDA-MB-231BRM Vector; 5 µM)	cell viability (MDA-MB-231BRM tGLI1; 0.05 µM)	cell viability (MDA-MB-231BRM tGLI1; 0.5 µM)	cell viability (MDA-MB-231BRM tGLI1; 5 µM)
Oc1ccc(-c2nc(-c3ccc(F)cc3)c(-c3ccncc3)[nH]2)cc1	1.13	1.43	1.07	1.29	1.09	0.87	1.06	1.31	0.808	0.92	0.88	0.89	0.846	0.85	0.856	0.933	0.892	0.912
CCOC(=O)c1cnc2ccc(-c3cncc(NS(=O)(=O)c4ccccc4)c3)cn12	1.1	0.838	0.0733	0.608	0.228	-0.0158	0.637	0.292	-0.0267	0.605	0.637	0.538	0.595	0.661	0.528	0.78	0.993	0.872
CN1CCC(CNc2ccc3ncc(-c4cccc(OC(F)(F)F)c4)n3n2)CC1 [SGI-1776 free base]	1.41	0.58	0.39	1.72	1.15	0.194	1.27	0.75	0.345	1.16	1.06	0.8	0.672	1.01	0.926	0.596	1.02	0.819
CC(C)NCC(O)COc1ccc(COCCOC(C)C)cc1 (centres undefined) [Bisoprolol fumarate]	1.32	1.03	1.1	1.05	1.25	1.12	1.14	0.95	1.14	1.1	1.02	1.02	0.963	1.03	1.03	1.07	1.02	1.06
CN(C)C/C=C/C(=O)Nc1cc2c(Nc3ccc(F)c(Cl)c3)ncnc2cc1O[C@H]1CCOC1 [Afatinib (BIBW2992)]	1.15 ± 0.14	1.48 ± 0.069	-0.273 ± 0.11	1.049 ± 0.0083	1.09 ± 0.036	-0.369 ± 0.41	0.998 ± 0.17	1.01 ± 0.26	-0.285 ± 0.2	0.909 ± 0.062	0.8837 ± 0.0022	0.834 ± 0.15	0.906 ± 0.12	0.971 ± 0.16	0.801 ± 0.12	0.949 ± 0.038	0.9 ± 0.042	0.821 ± 0.033
O=C(NOC[C@H](O)CO)c1ccc(F)c(F)c1Nc1ccc(I)cc1F	1.12	1.15	0.772	1.11	0.644	0.437	1.01	0.999	0.532	0.979	0.972	1.02	0.923	1.01	1.04	0.962	1	0.953
CCCCCCCCc1ccc(CCC(N)(CO)CO)cc1 [Fingolimod (FTY720) HCl]	1.17	1.56	-0.166	1.11	1.47	-0.0252	0.809	1.47	-0.127	0.976	0.954	0.906	1	1.06	0.941	1.01	1	0.863
Nc1nc(N)c2nc(-c3cccc(O)c3)cnc2n1	0.413	0.99	0.392	0.798	1.09	0.629	0.986	1.04	0.653	0.973	0.861	0.798	1.01	0.921	0.761	1.03	0.939	0.772
Cn1cc(/C=C2\C(=O)Nc3cccnc32)c2ccccc21	0.703	1.29	0.547	1.01	1.22	0.854	0.923	1.17	0.759	1.05	0.742	0.665	0.699	0.867	0.579	1.06	0.827	0.594
O=C(O)c1ccc(-c2c[nH]c3ncc(-c4ccccc4)cc23)cc1C1CCCC1	1.24	1.7	1.08	1.57	1.29	1.16	1.46	1.41	1.19	1	0.942	1.06	1.19	1.06	1.19	1.04	1	1.07
CCCC(CCC)C(=O)O [Valproic acid sodium salt (Sodium valproate)]	1.04	1.05	1.14	1.27	1.13	1.25	1.11	0.971	0.982	1.06	0.997	0.967	1.07	1.02	1.01	1.07	1.05	1.06
O=C(Nc1nc2cccc(-c3ccc(CN4CCS(=O)(=O)CC4)cc3)n2n1)C1CC1 [Filgotinib (GLPG0634)]	2.19	3.13	1.02	1.3	1.38	0.83	1.31	1.45	0.844	0.841	0.748	0.73	0.923	0.749	0.76	1.19	1.12	1.23
CN(c1ccccc1CNc1nc(Nc2ccc3c(c2)CC(=O)N3)ncc1C(F)(F)F)S(C)(=O)=O	2.27	2.73	0.435	1.39	1.21	0.16	1.4	1.18	0.205	0.691	0.651	0.677	0.895	0.771	0.629	1.18	1.02	0.989

Whole records, quoted from the list. Values in the order: cell viability (MDA-MB-231 GLI1; 0.05 µM) | cell viability (MDA-MB-231 GLI1; 0.5 µM) | cell viability (MDA-MB-231 GLI1; 5 µM) | cell viability (MDA-MB-231 Vector; 0.05 µM) | cell viability (MDA-MB-231 Vector; 0.5 µM) | cell viability (MDA-MB-231 Vector; 5 µM) | cell viability (MDA-MB-231 tGLI1; 0.05 µM) | cell viability (MDA-MB-231 tGLI1; 0.5 µM) | cell viability (MDA-MB-231 tGLI1; 5 µM) | cell viability (MDA-MB-231BRM GLI1; 0.05 µM) | cell viability (MDA-MB-231BRM GLI1; 0.5 µM) | cell viability (MDA-MB-231BRM GLI1; 5 µM) | cell viability (MDA-MB-231BRM Vector; 0.05 µM) | cell viability (MDA-MB-231BRM Vector; 0.5 µM) | cell viability (MDA-MB-231BRM Vector; 5 µM) | cell viability (MDA-MB-231BRM tGLI1; 0.05 µM) | cell viability (MDA-MB-231BRM tGLI1; 0.5 µM) | cell viability (MDA-MB-231BRM tGLI1; 5 µM)
CCCCCCCCc1ccc(CCC(N)(CO)CO)cc1 [Fingolimod (FTY720) HCl] is entered as 1.17 | 1.56 | -0.166 | 1.11 | 1.47 | -0.0252 | 0.809 | 1.47 | -0.127 | 0.976 | 0.954 | 0.906 | 1 | 1.06 | 0.941 | 1.01 | 1 | 0.863
O=C(Nc1nc2cccc(-c3ccc(CN4CCS(=O)(=O)CC4)cc3)n2n1)C1CC1 [Filgotinib (GLPG0634)] is entered as 2.19 | 3.13 | 1.02 | 1.3 | 1.38 | 0.83 | 1.31 | 1.45 | 0.844 | 0.841 | 0.748 | 0.73 | 0.923 | 0.749 | 0.76 | 1.19 | 1.12 | 1.23
